Values of other authors as cited in patent US20080286344A1, “Solid form” (priority 2007, published 2008).

Solubility in water, g of water for 1 g (1 g active in stated g of water): more than 10,000 g water
Solubility in water (descriptive term) (water): practically insoluble
SMILES: CC(C)Cc1ccc(C(C)C(=O)O)cc1 (centres unmarked) [Ibuprofen]
